The full ranking holds about 2,300 compounds; the median of “plate-normalized OD600 growth (mean of duplicates)” is about 0.29, and the lowest 2% start at about 0.22. The list shows a part of the results.
Test system: Escherichia coli BW25113
Test: plate-normalized OD600 growth (mean of duplicates) (OD600 (normalized)); higher = more growth (less inhibition)
Conditions: 10 µM
Description: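 E. coli BW25113 in LB (100 µl, 96-well, no shaking) was exposed to 10 µM of each compound from a ~30,000-member library and grown at 37°C for 24 h or 15°C for 48 h, in duplicate. Growth was read as OD600 and the duplicate ODs were normalized across screening plates to correct plate-to-plate variation. Hits were >3σ below the mean OD600 at 15°C and <2σ below the mean at 37°C.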

| SMILES | plate-normalized OD600 growth (temperature: 15°C, 48 h) | plate-normalized OD600 growth (temperature: 37°C, 24 h) |
| --- | --- | --- |
| COC(=O)CCCCCCCC(=O)Nc1ccc(Cl)cc1 | 0.262 | 0.613 |
| FC(F)(F)c1nnc2ccc(Cl)nn12 | 0.252 | 0.614 |
| O=C1/C(=C/c2ccc(Cl)cc2)C=C(c2ccccc2)N1c1ccc2ccccc2c1 | 0.233 | 0.633 |
| S=c1sc2ccccc2n1/C(=N/Nc1ccccc1)c1ccccc1 | 0.246 | 0.619 |
| CCC(=O)NC1(C(F)(F)F)C(=O)Nc2c1c(=O)n(C)c(=O)n2C (stereo not drawn) | 0.255 | 0.632 |
| COc1cc(Cl)c(S(=O)(=O)NCCc2c(C)[nH]c3ccc(Br)cc23)cc1Cl | 0.24 | 0.625 |
| NN1Nc2cc(S(N)(=O)=O)ccc2O1 | 0.242 | 0.618 |
| CCCS(=O)(=O)c1c(S(=O)(=O)CCC)c2ccccn2c1C(=O)c1ccc(F)cc1 | 0.234 | 0.622 |
| CCCCCCCCN1C2=C(C(=O)CC(C)(C)C2)C(c2ccccc2)C2=C1CC(C)(C)CC2=O | 0.293 | 0.639 |
| Fc1cccc(Cl)c1-c1nnc2ccc(N3CCOCC3)nn12 | 0.224 | 0.614 |
| Clc1cncc(Cl)c1N/N=C\C1CC2C=CC1C2 (stereo not drawn) | 0.25 | 0.612 |
| COCCCN1C(=O)c2cccc3c(N)ccc(c23)C1=O | 0.241 | 0.621 |
| O=C(Cn1nnc(-c2ccccc2)n1)N(c1ccccc1)c1ccc2ccccc2c1 | 0.233 | 0.628 |
| Cc1ccc(N(C)C(=S)Nc2ccc3nc[nH]c(=O)c3c2)cc1C | 0.237 | 0.625 |
| COc1ccccc1N1CCN(C(=O)c2cc3nc4c(c(C(F)(F)F)n3n2)CCc2ccccc2-4)CC1 | 0.228 | 0.606 |
| CN(C)c1nc2ccccc2n1N | 0.237 | 0.609 |
| CC(=O)CC(=O)Nc1ccccc1Cl | 0.286 | 0.62 |
| Cc1cc(/C=N/NC(=O)c2cc3ccccc3o2)c(C)n1-c1ccc(C23CC4CC(CC(C4)C2)C3)cc1 | 0.244 | 0.607 |
| COc1ccc(OC)c(S(=O)(=O)Oc2ccc(C#N)cc2)c1 | 0.245 | 0.618 |
| CCOC(=O)c1cccc(-c2ccc(/C=N/N3C(=O)C4C5C=CC(CC5)C4C3=O)o2)c1 (stereo not drawn) | 0.238 | 0.64 |
| N#CC1C(=O)NC(=O)C(C(=O)S)C12CCCCC2 (stereo not drawn) | 0.252 | 0.603 |
| CN1CCCC12NCCc1c2[nH]c2ccccc12 (stereo not drawn) | 0.28 | 0.647 |

Part of the list above, field by field.
COCCCN1C(=O)c2cccc3c(N)ccc(c23)C1=O
  plate-normalized OD600 growth (temperature: 15°C, 48 h): 0.241; plate-normalized OD600 growth (temperature: 37°C, 24 h): 0.621
COc1ccccc1N1CCN(C(=O)c2cc3nc4c(c(C(F)(F)F)n3n2)CCc2ccccc2-4)CC1
  plate-normalized OD600 growth (temperature: 15°C, 48 h): 0.228; plate-normalized OD600 growth (temperature: 37°C, 24 h): 0.606

Next part.

| SMILES | plate-normalized OD600 growth (temperature: 15°C, 48 h) | plate-normalized OD600 growth (temperature: 37°C, 24 h) |
| --- | --- | --- |
| O=C(COC(=O)c1ccc(Oc2ccc(O)cc2)cc1)c1ccccc1 | 0.235 | 0.61 |
| O=C(O)C1CCCCC1C(=O)NCc1cccnc1 (stereo not drawn) | 0.258 | 0.608 |
| CSC1=C(C#N)C(c2ccc(C(C)C)cc2)CC(=O)N1 (stereo not drawn) | 0.245 | 0.611 |
| O=C(CNC(=O)C(c1ccccc1)c1ccccc1)N/N=C/c1ccc(-c2ccc(Cl)c(Cl)c2)o1 | 0.238 | 0.611 |
| CCOC(=O)COc1ccc(/C=C(\C#N)c2nc3ccccc3[nH]2)cc1OC | 0.24 | 0.607 |
| CC(C)=NNc1nc(-c2cc3ccccc3oc2=O)cs1 | 0.234 | 0.589 |
| CCOC(=O)c1c(C)n(C)c2ccc(OCC)cc12 | 0.256 | 0.61 |
| CCc1nc(N)c(C#N)c(-c2ccccc2)c1C | 0.239 | 0.61 |
| CC1=C(C#N)C(c2c(C)[nH]n(-c3ccccc3)c2=O)(C(F)(F)F)C(=O)N1 (stereo not drawn) | 0.26 | 0.62 |
| O=C1CCC(=O)N1CN1CCc2ccccc2C1 | 0.238 | 0.611 |
| Cc1[nH]c2c(Cl)cccc2c1CCNS(=O)(=O)c1ccc(C(C)(C)C)cc1 | 0.227 | 0.623 |
| CCC(C)(C)C1CCc2sc3nc[nH]c(=O)c3c2C1 (stereo not drawn) | 0.248 | 0.626 |
| COC1(c2sc3c(N4CCOCC4)nc(-c4cnc(N)nc4)nc3c2C)COC1 | 0.243 | 0.622 |
| CCCCOc1ccc(S(=O)(=O)NC(=O)NCc2ccc(OCC)cc2)cc1 | 0.258 | 0.623 |
| N#CC1=CNc2ccccc2N=C1N | 0.252 | 0.625 |
| CCN(CC)C(=O)c1[nH]c(C)c(C)c1C | 0.219 | 0.611 |
| CSC1=NCN(Cc2ccccc2)CN1 | 0.258 | 0.62 |
| COc1ccc(-c2csc(N=Cc3c[nH]c4ccccc34)n2)cc1 | 0.254 | 0.602 |
| CSc1ccccc1NC(=O)c1cc2n(n1)C(C(F)(F)F)C1CCc3ccccc3C1N2 (stereo not drawn) | 0.25 | 0.603 |
| CCOC(=O)C(C=NNC(=O)c1ccc([N+](=O)[O-])cc1)=C(C)O | 0.258 | 0.653 |
| O=C1Nc2ccccc2/C1=N\n1c(C(F)(F)F)n[nH]c1=S | 0.268 | 0.649 |
| COc1ccc(/C=N/NC(=O)COc2ccc(Cl)cc2)cc1I | 0.257 | 0.62 |

— the supplement of paper PMC4371806
